The other results are listed elsewhere or left out. Values are raw readings; no control value is given beside them.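 Primary screen: polymyxin B was added at a level permeabilizing Salmonella outer membranes while sparing inner membranes. DMSO wells, both with and without polymyxin B, established maximum growth. Plate-to-plate variation meant each plate was ranked on its own, and the lowest-OD600 compounds were selected as hits.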
Tested on: Salmonella enterica serovar Typhimurium SL1344
Experiment: bacterial growth OD600 after 18 h with compound and polymyxin B; higher = more bacterial growth (less inhibition)
Details: 50 µM, Mueller-Hinton broth

| SMILES | bacterial growth OD600 (polymyxin B 1 µg/mL) | bacterial growth OD600 (polymyxin B 0.75 µg/mL) |
| --- | --- | --- |
| CC(C)Oc1ccc(C(=O)N2CCC(CO)(Cc3ccc(Cl)cc3)CC2)cc1 | 0.021 | – |
| O=C(Nc1ccc(-c2cscn2)cc1)C1CCCN1Cc1cccc(O)c1 (centres undefined) | – | 0.706 |
| CCc1cc(C(=O)N2CCOc3ccc(CN4CCC(OCc5ccccc5)CC4)cc3C2)no1 | – | 0.78 |
| O=C(Cc1c(F)ccc(F)c1F)NCC1CC(Cc2ccc(F)cc2)=NO1 (centres undefined) | – | 0.663 |
| Cc1ccc(C(=O)N2CCC(n3nccc3NC(=O)c3ccc4c(c3)OCO4)CC2)s1 | 1.18 | – |
| Cc1cccc2c(NCc3ccccc3F)nc(CNC(=O)CCc3nc4cc(F)ccc4[nH]3)nc12 | – | 0.286 |
| Cc1ccc(NC2CCCN(C(=O)c3ccc4c(c3)no[n+]4[O-])C2)cc1C (centres undefined) | 1.13 | – |
| Cc1nc(CN(C)CC2(O)CCCN(Cc3cccc(F)c3F)C2=O)cs1 (centres undefined) | 1.02 | – |
| C#CCN(Cc1ccco1)C(=O)c1cc(NC(=O)c2ccccc2OC)c2c(c1)nc(CC)n2C | – | 0.95 |

A run of entries from the list above, for reference:

| SMILES | bacterial growth OD600 (polymyxin B 1 µg/mL) | bacterial growth OD600 (polymyxin B 0.75 µg/mL) |
| --- | --- | --- |
| O=C(Nc1ccc(-c2cscn2)cc1)C1CCCN1Cc1cccc(O)c1 (centres undefined) | – | 0.706 |
| CCc1cc(C(=O)N2CCOc3ccc(CN4CCC(OCc5ccccc5)CC4)cc3C2)no1 | – | 0.78 |
